Inconclusive means that the source gave no clear call. Such entries were picked first, then a sample of the others. Potencies of inconclusive entries are doubtful fits and often do not repeat. Active and inactive are the calls of the source. Calls follow the shape of the dose curve; as a rule, active = well fitted inhibition curve with a large enough effect; inconclusive = small, poorly fitted or top-dose-only effect; inactive = flat fitted curve, though single readings scatter.
Assay: qHTS Assay for Inhibitors of Bacillus subtilis Sfp phosphopantetheinyl transferase (PPTase): SAR in B subtilis HM489
Conditions: B. subtilis HM489 whole-cell Sfp-dependent phenotype; series mostly up to 114 µM; activity, negative = inhibition: at the top concentration
From the text: The covalent attachment of a phosphopantetheinyl (4'-PP) arm to a variety of synthases and other proteins is a key posttranslational protein modification. The 4'-PP is installed on the proteins post-translationally from coenzyme A (CoA) on a conserved serine residue by action of phosphopantetheinyl transferase (PPTase) enzymes. Phosphopantetheinylation is essential for synthase activity, and removal of the PPTase gene precludes natural product synthesis in microorganisms, or in the case of fatty acid biosynthesis, renders the organism unviable. PPTase enzymes belong to a distinct structural superfamily. Within bacteria, these enzymes are grouped into two classes based upon primary structure, the AcpS-Type and Sfp-Type PPTases.
Sfp-type PPTases, corresponding to an activator of surfactin production in Bacillus subtilis, are responsible for modifying type I polyketide and nonribosomal peptide synthases of prokaryotes. Sfp-type PPTases are responsible for the activation of a variety of pathogen-associated virulence factors. Among these compounds are toxins such as mycolactone from Mycobacterium ulcerans, siderophores such as vibriobactin from Vibrio cholerae or mycobactin from Mycobacterium tuberculosis, as well as the mycolic acids which form the waxy cell wall of Mycobacteria. The biosyntheses of these natural products are considered attractive targets for drug design.
In search of small molecule Sfp-PPTase inhibitors, a fluorescence quenching assay was developed for detection of Bacillus subtilis Sfp-PPTase enzymatic activity in a miniaturized high-throughput format. The consensus ybbr acceptor peptide […] was N-terminally labeled with Black Hole Quencher-2 (BHQ-2) and used in combination with rhodamine-labeled coenzyme A as a co-substrate.
Phosphopantetheinyl transfer is a process essential to cellular viability and maintenance. Cellular permeable and stable compounds acting as PPTase inhibitors are anticipated to be antimicrobial agents in organisms with complimenting genotypes. […] This experiment evaluated a series of test compounds for antimicrobial activity with B. subtilis HM489 (genotype: acpS- and sfp+), a strain that contains a targeted lesion in the acpS locus and thus requires a functional Sfp gene product for viability. [Mootz HD, 2001] This strain is expected to be sensitized to cell-permeable Sfp inhibitors.
NIH Chemical Genomics Center [NCGC]
NIH Molecular Libraries Probe Centers Network [MLPCN]
Assay Submitter (PI): Michale Burkart, University of California, San Diego
Bacillus subtilis HM489 is maintained on lysogeny broth (LB) solidified by the addition of 1.5% w/v agar. Single colonies were used to LB medium (2 mL) and shaken overnight at 30 deg C. In the morning, this culture (100 uL) was used to seed a fresh LB medium (10 mL) and was shaken at 30 deg C until the culture OD600 reached 0.5. This culture was diluted 1:100 in fresh LB medium to provide the inoculum below.
Bacterial susceptibility.
LB medium (2 uL) is dispensed into wells of a sterile white 1536-well plate. Test compounds (23 nL) prepared as serial dilutions in DMSO are added to the plate by pintool transfer. Innoculum (2 uL) is added; the plates are covered with a vented Kalypsys assay lid and incubated at 30 deg C. After 5 h, Bac-Titer Glo (4 uL; Promega Corp, Madison, WI) is added to the plates. They are incubated 10 minutes at room temperature and then the luminescence detected in a ViewLux multimodal plate reader.

SMILES | Potency | activity, negative = inhibition
COc1ccnc(NC(=S)N2CCN(c3ncc(C(F)(F)F)cc3Cl)CC2)c1 | active: 6.63 µM | 
COc1cccc(NC(=S)N2CCN(c3cc(Cl)cc(Cl)c3)CC2)n1 | inconclusive: 41.8 µM [inhibitor, partial curve, poor fit] | 
Cc1ccnc(NC(=S)N2CCCN(c3cccc(C(F)(F)F)c3)CC2)c1 | active: 4.18 µM | 
Cc1cc(C)nc(NC(=S)N2CCN(c3ncccc3C#N)CC2)c1 |  | inactive: -15.5%
Cc1ccnc(NC(=S)N2CCCc3ccc(C(F)(F)F)cc32)c1 |  | inactive: -19.8%
COc1cccc(NC(=S)N2CCN(c3ccc(Cl)c(Cl)c3)CC2)n1 |  | inactive: -17.5%
CC(Cc1ccccc1)C(=O)Nc1ccc(Cl)cc1C(=O)O (stereo unspecified) | inconclusive: 93.7 µM [inhibitor, single point] | 
FC(F)(F)c1cccc(N2CCN(C(=S)Nc3nccc4ccccc34)CC2)c1 | inconclusive: 3.73 µM [inhibitor, full curve] | 
Cc1ccnc(N=C(N)N2CCN(c3cccc(C(F)(F)F)c3)CC2)c1 | inconclusive: 83.5 µM [inhibitor, single point] | 
Cc1cc(C)nc(NC(=S)N2CCN(c3ccc(Cl)cc3C(F)(F)F)CC2)c1 | inconclusive: 26.4 µM [inhibitor, partial curve, poor fit] | 
Cc1nc(CN(C)c2ncnc3ccc(-c4ccc5[nH]ncc5c4)cc23)cs1 | inconclusive: 33.2 µM [inhibitor, partial curve] | 

Reference: PubChem BioAssay AID602366 (National Center for Advancing Translational Sciences (NCATS), 2012)
